Source: PubChem BioAssay AID493014 (National Center for Advancing Translational Sciences (NCATS), 2011)
The list shows a part of the results. These are further read-outs of the screen, such as a control signal, another cell line or another target. No call is given for them. Most of these compounds were active or inconclusive in the main read-out, so they are no random draw. Words in brackets tell the shape of the fitted curve; partial curves, single points and poor fits give uncertain potencies.

Experiment: qHTS Assay to Find Inhibitors of Chronic Active B-Cell Receptor Signaling
Conditions: ABC-DLBCL IkBa-CBG/CBR reporter, luminescence ratio (green luciferase fused to IkBa over red control in TMD8 lymphoma cells), 4 h
Summary of the method: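 Concentration-response series (up to 46 uM) were applied to TMD8 dual-reporter cells for 4 h at 37C with doxycycline. Green/red ratio, after filter-overlap correction, defined %Activity; red signal alone was normalised to basal cells and zero luminescence.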

[1] = measured here: CBR red luminescence, cell number
[2] = measured here: IkBa-CBG green luminescence

Row | SMILES | AC50 [1] | AC50 [2]
1 | CC(=O)n1cc(N(C(=O)CCl)c2ccc([N+](=O)[O-])cc2)c2ccccc21 | 7.08 µM [falling, partial curve] | 10 µM [rising, partial curve, poor fit]
2 | Cn1nnnc1SCC(=O)N1CCc2ccccc2C1 | 3.98 µM [rising, single point] | –
3 | C=CCNc1oc(-c2cccs2)nc1C#N | 11.6 µM [rising, partial curve, poor fit] | –
4 | CSc1nnc(Nc2ccccc2C)s1 | 14.6 µM [falling, partial curve, poor fit] | –
5 | NNC(=O)c1ccc(COc2ccc3ccccc3c2)o1 | 7.08 µM [falling, full curve] | –
6 | Cc1cc(Cl)cc(Cl)c1OCCCCN(C)C | 18.4 µM [falling, single point] | –
7 | O=S(=O)(NCc1cccs1)c1cccc2cccnc12 | 35.5 µM [rising, partial curve, poor fit] | –
8 | COC(=O)c1cc(C)nc(N)c1C#N | 5.8 µM [falling, full curve, poor fit] | –
9 | c1ccc(Nc2nnc(-c3cccc4ccccc34)o2)cc1 | 3.16 µM [falling, full curve] | –
10 | COc1ccc(N(CC(=O)Nc2cccc(C)c2)S(=O)(=O)c2ccc(C)cc2)cc1OC | 2.51 µM [rising, partial curve] | –
11 | CC1Sc2ccc(S(=O)(=O)NCCc3ccc(Cl)cc3)cc2NC1=O (stereo unspecified) | 31.6 µM [falling, single point] | 35.5 µM [rising, partial curve, poor fit]
12 | O=C(Nc1ccccc1C(=O)O)c1cccc(C(=O)Nc2ccccc2C(=O)O)c1 | 2.51 µM [falling, full curve] | –
13 | CC(C)c1ccc2[nH]c3c(c2c1)CCCC3=O | 11.2 µM [rising, partial curve] | –
14 | COCCn1c(=NC(=O)c2cc(-c3cccs3)nc3ccccc23)sc2cc(S(N)(=O)=O)ccc21 | 8.2 µM [falling, partial curve] | –
15 | N#Cc1c(N2CCCCC2)nc(N)c2c(N)nc(SCC(=O)O)cc12 | 10 µM [falling, partial curve] | 11.2 µM [rising, single point]
16 | O=C(O)CCN1C(=O)/C(=C\c2ccc(-c3nc4ccccc4s3)o2)SC1=S | 0.651 µM [falling, full curve, poor fit] | –
17 | CC(C)c1ccc(Nc2nc(Cl)nc(NCc3ccco3)n2)cc1 | 31.6 µM [rising, single point] | –
18 | CC(C)Cc1c(O)nc(SCC(=O)Nc2ccc3c(c2)CCC3)[nH]c1=O | 7.31 µM [rising, partial curve, poor fit] | –

Part of the list above in a different format:

| Row | SMILES | AC50 [1] | AC50 [2] |
| --- | --- | --- | --- |
| 6 | Cc1cc(Cl)cc(Cl)c1OCCCCN(C)C | 18.4 µM [falling, single point] | – |
| 7 | O=S(=O)(NCc1cccs1)c1cccc2cccnc12 | 35.5 µM [rising, partial curve, poor fit] | – |
